Assay results as given in patent US20190367612A1.
Results are given in words; binding and its absence hold for the method and conditions named. A result given as binding can be weak or reduced; the word gives no strength.

Experiments:
[1] = molecular target: cynomolgus monkey GPRC5D (cynomolgus monkey); assay: flow cytometry, KMS-11_cGPRC5D cells
[2] = molecular target: cynomolgus monkey GPRC5D (cynomolgus monkey); assay: flow cytometry on KMS-11_cGPRC5D cells (cynomolgus monkey GPRC5D), PE anti-human IgG Fc detection, rMFI = MFI minus isotype control
[3] = molecular target: cynomolgus monkey GPRC5D (cynomolgus monkey); assay: flow cytometry on KMS-11_cGPRC5D cells (cynomolgus monkey GPRC5D), PE anti-human IgG Fc, rMFI over human IgG isotype control

Row | Binder | binding [1] | binding [2] | binding [3]
1 | humanized anti-GPRC5D antibody h7B4_H2/L2 (antibody, human IgG1, kappa, V domains shown) VH: EIQLQESGPGLVKPSQTLSLTCTVSGYTITSGYDWSWIRQPPGKGLEWIGYMSYRGSTNYNPSLKSRVTISRDTSKNQFSLKLSSVTAADTAVYYCALTRTYWYNYYYVLDAWGQGTLVTVSS VL: DIQMTQSPSSLSLSPGERATLSCKASQNINKYLDWYQQKPGQPPRLLIYNTNNLHTGIPDRFSGSGSGTDYTLTISRLEPEDFAVYYCLQRNSWYTFGQGTKVEIKR | binds | binds | 
2 | humanized anti-GPRC5D antibody h7B4_H5/L1 (antibody, human IgG1, kappa, V domains shown) VH: EIQLQESGPGLVKPSQTLSLTCTVSGYTITSGYDWSWIRKPPGNKMEWIAYMSYRGSTNYNPSLKSRVTISRDTSKNQFSLKLSSVTAADTAVYYCALTRTYWYNYYYVLDAWGQGTLVTVSS VL: EIVLTQSPGTLSLSPGERATLSCKASQNINKYLDWYQQKPGQPPRLLIYNTNNLHTGIPDRFSGSGSGTDYTLTISRLEPEDFAVYYCLQRNSWYTFGQGTKVEIKR | binds | binds | 
3 | human chimeric 2A4 (antibody, human IgG1, V domains shown) VH: QVQLQQSGAELAKPGTSVKLSCKASGYTFTSYYIYWVKQRPGQGLEWIGYVYPGYGGTYYSDKFKGKATFTADTSSSTAYMLLGSLTPEDSAYYFCARRKGIIRGPGYFDYWGQGVMVTVSS VL: DIQMTQSPASLSASLGETVSIECLASEGISNSLAWYQQKPGKSPQLLIYGASSLQDGVPSRFSGSGSGTQYSLKISGMQPEDEGLYYCQQGYKYPPTFGGGTKLELKR | binds |  | binds
4 | human chimeric 7B4 (antibody, human IgG1, V domains shown) VH: EIHLQESGPGLVKPSQSLSLTCSVTGYTITSGYDWSWIRKFPGNKMEWMAYMSYRGSTNYNPSLKSRISITRDTSKNQFFLQLNSVTTEDTATYYCALTRTYWYNYYYVLDAWGQGASVTVSS VL: DIQMTQSPSFLSASVGERVTLSCKASQNINKYLDWYQQKLGEPPKLLIYNTNNLHTGIPSRFSGSGSGTDYTLTISGLQPEDVATYFCLQRNSWYTFGAGTKLELKR | binds |  | binds
